Measured values reported in publication PMC10127613 (mBio, 2023).
For some assays here: Negatives hold for the conditions tested. Protein sequences can lack the tags named with them.

Key:
[1] = molecular target: T1, Clr (Sinorhizobium meliloti) (UniProt Q92SD2); test: EMSA; settings: 1 mM cAMP, EMSA: 2 mM HEPES pH 7.0, 30 mM NaCl, 50 mM KCl, 850 ng salmon sperm DNA, 1 ug BSA, 20 ng Cy3-DNA, 3 ug Clr in 10 uL, room temperature, recombinant protein, residues 1-234, protein details: C-terminal His6 (pET36b, NdeI/XhoI), label: 5'-Cy3 on reverse strand
T1 sequence (looked up): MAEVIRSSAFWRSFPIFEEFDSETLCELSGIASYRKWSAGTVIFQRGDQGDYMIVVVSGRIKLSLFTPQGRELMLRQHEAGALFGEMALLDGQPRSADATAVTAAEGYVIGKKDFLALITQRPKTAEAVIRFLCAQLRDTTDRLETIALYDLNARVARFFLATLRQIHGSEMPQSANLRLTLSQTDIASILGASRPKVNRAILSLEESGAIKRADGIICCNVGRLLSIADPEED

[2] = molecular target: T1, Clr (Sinorhizobium meliloti); test: ITC; settings: 1 mM cGMP; ITC: 20 mM HEPES, 300 mM NaCl, 20 mM MgCl2, pH 7.0, 25 C; recombinant protein; residues 1-234; protein details: C-terminal His6 (pET36b, NdeI/XhoI); letters put together from the description; only the site is given

Sequence | binding result [1] | binding result [2]
AGCGGATAACAATTTCACACAGGAAACAGCATATGACCATGATTACGCCAAGCTCGAAATTAACCCTCACTAAAGGGAACAAAAGCTGGAGCTCTTAAGCTTTTGCTCAACCTAATGCCCGTGCCGGTGCTTGATGGCGGCCATCTGATGTTCTATGCGGTCGAAGCGTTGCGCGGCAGGCCGGTCGGTCCTGCCGCACAGGATCTCGCATTCCGCATAGGCTTTGCCATGGTGCTCATGCTGACGGTTTTTGCGGCCTGGAACGATATCAACTGGCTCTTCGGATAGGGGCGGAGTCTTGGGCGGGAGCGGACATCGTTAAGGATTCGGGGAGCGAGTGAGTTTCGCCGGCTGCTCGATAACGGTTTGTTTACGATAATAAGAGGCCGTAGTGGCTGTTAAGCCACGGTTGGAATTGAAGTAAACAGAAATTAACGAGCTGACTTGCTTGTATGGGAAAAGCGGTTAAAACGGCAACCGTGACCGGAGTCGGCACGAAACTGCCGCGGGACGTTGGGAAAAGGTAAGATTTTGACATGAAAGCTGGTTCAAGGTTTTTGAACGCGGTGTCGTCTAGACTGCAGATGGTGAGCAAGGGCGAGGAGCTGTTCA (double strand) [omp] | no binding | –
CTAGGTAACATTACTCGCG / GCGAGTAATGTTAC / CTAGGTAACATTACTCGCG / GCGAGTAATGTTAC | – | binds
